Assay results reported in the supplement of paper PMC12823440, “Inhibitors supercharge kinase turnover through native proteolytic circuits” (Nature, 2025).
Counter-ions that a name gives are not always drawn. Some of the results follow. The calls rarely recur for the same compound in another form.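 In K562 cells expressing nanoluciferase-fused kinases, luminescence was recorded at 4 h intervals between 2 and 18 h, normalized as percent of control with DMSO at 100% and a positive control at 0%. A significant (2 sigma) signal drop marks a time point as decreased. The authors' rule for a hit is not shown and takes in more than the number of time points.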

The chains behind the UniProt entries cited, without tags or fusion partners. Where a name states a change or a piece, a line headed by the entry shows the natural chain unless it says otherwise.
UniProt P14616: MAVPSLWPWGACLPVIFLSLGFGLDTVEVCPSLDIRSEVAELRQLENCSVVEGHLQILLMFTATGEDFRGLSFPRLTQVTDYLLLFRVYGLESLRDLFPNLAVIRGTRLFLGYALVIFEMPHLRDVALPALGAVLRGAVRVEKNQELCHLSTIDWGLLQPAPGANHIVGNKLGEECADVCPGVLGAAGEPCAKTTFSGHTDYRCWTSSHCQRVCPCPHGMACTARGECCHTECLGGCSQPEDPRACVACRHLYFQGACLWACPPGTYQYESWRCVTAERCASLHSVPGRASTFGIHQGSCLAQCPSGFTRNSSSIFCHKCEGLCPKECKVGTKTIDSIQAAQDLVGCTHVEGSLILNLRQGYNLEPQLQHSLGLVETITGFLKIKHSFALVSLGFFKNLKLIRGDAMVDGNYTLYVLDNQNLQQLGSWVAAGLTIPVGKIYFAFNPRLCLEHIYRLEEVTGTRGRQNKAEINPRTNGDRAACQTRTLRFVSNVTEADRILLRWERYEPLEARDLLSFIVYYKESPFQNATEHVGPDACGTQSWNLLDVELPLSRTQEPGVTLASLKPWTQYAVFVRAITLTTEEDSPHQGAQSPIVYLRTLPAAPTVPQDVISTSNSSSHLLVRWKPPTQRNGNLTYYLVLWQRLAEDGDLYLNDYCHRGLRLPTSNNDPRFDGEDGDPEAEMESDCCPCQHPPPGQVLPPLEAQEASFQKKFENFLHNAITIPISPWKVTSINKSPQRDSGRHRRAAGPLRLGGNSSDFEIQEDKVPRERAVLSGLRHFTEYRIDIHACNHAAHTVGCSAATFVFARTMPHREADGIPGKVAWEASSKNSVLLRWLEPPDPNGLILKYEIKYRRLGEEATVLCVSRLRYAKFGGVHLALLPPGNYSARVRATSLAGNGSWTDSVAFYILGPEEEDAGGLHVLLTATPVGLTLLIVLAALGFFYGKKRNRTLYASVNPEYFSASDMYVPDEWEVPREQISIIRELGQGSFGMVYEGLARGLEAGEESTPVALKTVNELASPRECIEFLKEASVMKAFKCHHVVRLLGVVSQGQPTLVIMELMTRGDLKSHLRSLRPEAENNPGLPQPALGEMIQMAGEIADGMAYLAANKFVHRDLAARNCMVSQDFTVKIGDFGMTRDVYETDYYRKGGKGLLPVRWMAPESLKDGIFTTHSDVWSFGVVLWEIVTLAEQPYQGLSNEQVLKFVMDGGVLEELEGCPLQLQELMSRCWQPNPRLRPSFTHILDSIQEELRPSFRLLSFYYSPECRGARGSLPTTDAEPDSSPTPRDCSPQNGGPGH

Molecular target: INSRR (UniProt P14616)
Assay: kinase-Nluc reporter destabilization hit call (1 = scored as downregulated) (binary); higher = compound decreases kinase abundance
Conditions: K562; 2-18 h

kinase-Nluc reporter destabilization hit call, inactive:
O=c1cc(-c2ccc(O[C@@H]3O[C@H](CO)[C@@H](O)[C@H](O)[C@H]3O)cc2)oc2cc(O)c([C@@H]3O[C@H](CO)[C@@H](O)[C@H](O)[C@H]3O[C@@H]3OC[C@H](O)[C@H](O)[C@H]3O)c(O)c12 [Vaccarin] (10 µM) 0
O=CN1CCN(c2ccc(C=C3C(=O)Nc4ccccc43)cc2)CC1 (10 µM) 0
COc1ccc(Cl)cc1N(CC(=O)Nc1ccc2c(c1)OCO2)S(=O)(=O)c1ccccc1 (2.5 µM) 0
CCc1c(C(=O)NNC(=O)[C@H](O)c2cc(F)cc(F)c2)ccc(O)c1C (10 µM) 0
CN(C)CCn1cc2cc(NC(=O)c3cccc(C(F)(F)F)n3)c(C(C)(C)O)cc2n1 (10 µM) 0
CCC[C@H](C)Oc1nc(N)c2[nH]c(=O)n(CCCCCN3CCCCC3)c2n1 (10 µM) 0
CCOC(=O)c1c(C)[nH]c(C=C2C(=O)Nc3ccccc32)c1C (10 µM) 0
Cc1ccc(NC(=O)N2CCN(c3nc(N)nc4sc(-c5cccnc5)nc34)CC2)cc1 [PI4KIII beta inhibitor 3] (10 µM) 0
CS[C@@]1(C(=O)Nc2ccc3[nH]nc(-c4ccc(OC(C)C)nc4)c3c2)CCN(CC(=O)N2CC=C(c3ccc(-c4ncn(C)n4)cc3)CC2)C1 (2.5 µM) 0
O=C(Nc1ccc(Cl)cc1)C1CN(C(=O)c2cccc(-c3ccco3)c2)CC(F)(F)C1 (stereo not drawn) (2.5 µM) 0
Nc1ccc(Sc2nc3ccccc3s2)c(Cl)c1 [KRAS inhibitor-9] (10 µM) 0
Cn1c(N2CCO[C@@H](c3ccc(F)cc3)C2)nc(-c2ccncn2)cc1=O (10 µM) 0
COc1ccc(CN2CCC(c3ccc4nc(C(=O)N5CCN(Cc6ccc(C(F)(F)F)cc6)CC5)[nH]c4c3)CC2)cn1 (2.5 µM) 0
O=C(O)c1c[nH]c2cc(Cl)c(-c3ccc(C4(O)CCC4)cc3)cc12 (10 µM) 0
CC(C)(Oc1ccc(Cl)cc1)C(=O)Nc1ccc(OCc2ccc(C#N)cc2)cc1 [AMPK activator 4] (10 µM) 0
O=C(NCc1ccn[nH]1)c1cc([C@@H]2CCNC[C@H]2COc2ccc3c(c2)OCO3)ccc1F [GRK2-IN-1 (hydrochloride)] (10 µM) 0
Cc1cnc(Cl)nc1-c1ccc(N(Cc2ccc(CNC(=O)C(F)F)cc2)C(=O)c2ccc(O)cc2O)cc1 (10 µM) 0
CC1=C(C#N)C(c2ccc3[nH]nc(C)c3c2)C(C#N)=C(C)N1 (10 µM) 0
CN(C[C@@H]1COCCO1)S(=O)(=O)Nc1ccc2ccc3ncc(-c4cnn(C)c4)cc3c(=O)c2c1 (2.5 µM) 0
CC(=O)Nc1nc(C)c(-c2cc(C)c3c(c2)CN([C@@H](C)C2CC2)C3=O)s1 (10 µM) 0
O=C(Nc1ccccc1C(=O)NC1CCCCNC1=O)c1cc2ccccc2s1 (stereo not drawn) (10 µM) 0
CO[C@]1(C(=O)N[C@@H](C)c2ccc(-n3cc(F)cn3)nc2)CC[C@H](c2nc(C)cc(Nc3cc(C)[nH]n3)n2)CC1 [Pralsetinib] (10 µM) 0
O=[N+]([O-])c1ccc(-c2nc(-c3ccc(F)cc3)c(-c3ccncc3)[nH]2)cc1 (10 µM) 0
CC(ONC(=O)c1cc(C(F)(F)F)cc(C(F)(F)F)c1)C(=O)Nc1ccc(Cl)cc1 (stereo not drawn) (2.5 µM) 0
Cc1cncc2cccc(S(=O)(=O)N3CCCNC[C@@H]3C)c12 [H-1152 (dihydrochloride)] (10 µM) 0
Cc1nc(NC(=O)N2CCC[C@H]2C(N)=O)sc1-c1ccnc(C(C)(C)C(F)(F)F)c1 [Alpelisib] (2.5 µM) 0
CCCCNc1ncc2c(-c3ccc(F)cc3)nn(CC3CCC(N)CC3)c2n1 (stereo not drawn) (2.5 µM) 0
CS(=O)(=O)c1ccc([C@@H](CC2CCCC2)C(=O)Nc2nccs2)cc1 (10 µM) 0
CO/N=C1/C(c2c(O)[nH]c3cc(Cl)c(Cl)cc23)=Nc2ccccc21 (10 µM) 0
CNCc1ccccc1Sc1cccc2ccccc12 [IFN alpha-IFNAR-IN-1 (hydrochloride)] (10 µM) 0
C=CC(=O)N1CCC(c2ccc(C(N)=O)c(-c3ccc(Oc4ccccc4)cc3)n2)CC1 [Orelabrutinib] (2.5 µM) 0
Cc1cc2c(F)c(Oc3ncnn4cc(OC[C@@H](C)OC(=O)[C@H](C)N)c(C)c34)ccc2[nH]1 [Brivanib (alaninate)] (10 µM) 0
CCC(F)(F)c1cc(N2CCC(S(C)(=O)=O)CC2)nc2sc(C(N)=O)c(N)c12 (10 µM) 0
NC(=O)c1c(NC(=O)C2CC2)sc2c1CCCC2 (10 µM) 0
CC(C)=CCC[C@](C)(O[C@@H]1O[C@H](CO[C@@H]2O[C@H](CO)[C@@H](O)[C@H](O)[C@H]2O)[C@@H](O)[C@H](O)[C@H]1O)[C@H]1CC[C@]2(C)[C@@H]1[C@H](O)C[C@@H]1[C@@]3(C)CC[C@H](O[C@@H]4O[C@H](CO)[C@@H](O)[C@H](O)[C@H]4O[C@@H]4O[C@H](CO)[C@@H](O)[C@H](O)[C@H]4O)C(C)(C)[C@@H]3CC[C@]12C [Ginsenoside Rb1] (10 µM) 0
COc1cccc(-c2cc(=O)c3ccccc3o2)c1N (10 µM) 0
C[C@@H]1COC(Nc2ccc3ncnc(Nc4ccc(OCc5nccs5)c(Cl)c4)c3c2)=N1 [Varlitinib] (10 µM) 0
Cc1nc(Nc2cnn(C3CCNCC3)c2)nc2c1N(C)C(=O)c1cc3ccccc3cc1N2C (2.5 µM) 0

Random excerpt: 2 compounds from above.
kinase-Nluc reporter destabilization hit call, inactive:
CCOC(=O)c1c(C)[nH]c(C=C2C(=O)Nc3ccccc32)c1C (10 µM) 0
Cc1nc(NC(=O)N2CCC[C@H]2C(N)=O)sc1-c1ccnc(C(C)(C)C(F)(F)F)c1 [Alpelisib] (2.5 µM) 0
